Values of other authors, collected in patent US11278526B2, “Compounds and methods for treating lupus” (RECEPTOS LLC, priority 2016, dated 2022).
At least one structure is not confirmed: it was looked up by name or label, or the drawing left a doubt.

Tested on: anti-dsDNA antibodies
Conditions: NZBWF1 mice (Alperovich et al. 2007); BXSB mice (Ando et al. 2010); cited from earlier work

CCCCCCCCc1ccc(CCC(N)(CO)CO)cc1 [fingolimod]
Effects on serum anti-dsDNA antibody titers in SLE mouse models: similarly limited effects
